# According to the supplement of paper PMC10849652:
# Chains of the proteins cited; added tags and fusions are not shown. Lines headed by an entry give the natural chain unless they say otherwise; changes in a name come on top.
# UniProt Q5JTZ9, whole entry, looked up: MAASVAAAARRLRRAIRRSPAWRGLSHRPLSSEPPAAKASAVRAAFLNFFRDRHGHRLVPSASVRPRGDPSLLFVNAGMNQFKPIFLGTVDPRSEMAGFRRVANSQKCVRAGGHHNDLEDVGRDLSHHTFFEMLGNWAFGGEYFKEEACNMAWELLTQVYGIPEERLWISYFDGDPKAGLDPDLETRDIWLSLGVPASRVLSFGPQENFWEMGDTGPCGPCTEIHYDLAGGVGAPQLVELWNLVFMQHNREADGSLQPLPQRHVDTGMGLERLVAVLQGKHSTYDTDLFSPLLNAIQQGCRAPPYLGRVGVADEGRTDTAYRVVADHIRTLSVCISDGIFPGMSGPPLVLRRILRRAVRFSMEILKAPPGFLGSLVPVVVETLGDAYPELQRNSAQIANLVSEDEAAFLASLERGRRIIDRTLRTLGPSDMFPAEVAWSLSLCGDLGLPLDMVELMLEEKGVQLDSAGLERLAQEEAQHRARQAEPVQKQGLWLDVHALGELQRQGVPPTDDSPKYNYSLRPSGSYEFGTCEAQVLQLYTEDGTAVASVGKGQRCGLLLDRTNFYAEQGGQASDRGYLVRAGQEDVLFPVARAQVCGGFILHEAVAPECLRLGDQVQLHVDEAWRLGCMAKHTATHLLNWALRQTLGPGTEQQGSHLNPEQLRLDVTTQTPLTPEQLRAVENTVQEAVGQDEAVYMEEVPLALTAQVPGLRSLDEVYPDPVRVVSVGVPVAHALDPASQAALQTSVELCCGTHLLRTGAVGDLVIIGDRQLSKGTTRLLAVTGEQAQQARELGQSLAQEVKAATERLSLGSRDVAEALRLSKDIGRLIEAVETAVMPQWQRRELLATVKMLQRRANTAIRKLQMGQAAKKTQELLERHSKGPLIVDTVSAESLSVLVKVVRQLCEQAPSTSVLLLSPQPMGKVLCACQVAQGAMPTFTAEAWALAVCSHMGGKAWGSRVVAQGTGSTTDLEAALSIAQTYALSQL
# UniProt P24666: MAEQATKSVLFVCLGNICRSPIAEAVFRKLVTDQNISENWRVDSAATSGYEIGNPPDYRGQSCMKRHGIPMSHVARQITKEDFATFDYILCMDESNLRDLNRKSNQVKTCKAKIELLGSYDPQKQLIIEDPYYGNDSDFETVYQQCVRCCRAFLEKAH
# UniProt O95573: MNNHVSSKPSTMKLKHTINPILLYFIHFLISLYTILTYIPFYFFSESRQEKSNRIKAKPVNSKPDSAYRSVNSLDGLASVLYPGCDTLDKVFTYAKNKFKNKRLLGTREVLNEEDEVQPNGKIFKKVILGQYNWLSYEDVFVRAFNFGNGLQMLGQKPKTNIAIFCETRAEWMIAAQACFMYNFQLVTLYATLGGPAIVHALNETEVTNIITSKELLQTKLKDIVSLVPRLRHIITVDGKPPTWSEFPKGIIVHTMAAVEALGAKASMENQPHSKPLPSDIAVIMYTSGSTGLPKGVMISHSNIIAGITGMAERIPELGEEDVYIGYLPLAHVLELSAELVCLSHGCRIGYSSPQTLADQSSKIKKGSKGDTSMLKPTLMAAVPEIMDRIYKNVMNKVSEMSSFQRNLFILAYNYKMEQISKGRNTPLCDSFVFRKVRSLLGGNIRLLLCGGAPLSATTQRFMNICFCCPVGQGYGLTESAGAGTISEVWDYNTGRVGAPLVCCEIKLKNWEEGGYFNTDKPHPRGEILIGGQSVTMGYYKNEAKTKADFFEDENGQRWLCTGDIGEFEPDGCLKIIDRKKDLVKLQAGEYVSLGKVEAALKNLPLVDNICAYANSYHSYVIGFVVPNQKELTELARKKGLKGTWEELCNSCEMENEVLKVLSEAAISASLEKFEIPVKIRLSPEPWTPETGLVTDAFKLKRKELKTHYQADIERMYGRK
# UniProt Q9ULC5: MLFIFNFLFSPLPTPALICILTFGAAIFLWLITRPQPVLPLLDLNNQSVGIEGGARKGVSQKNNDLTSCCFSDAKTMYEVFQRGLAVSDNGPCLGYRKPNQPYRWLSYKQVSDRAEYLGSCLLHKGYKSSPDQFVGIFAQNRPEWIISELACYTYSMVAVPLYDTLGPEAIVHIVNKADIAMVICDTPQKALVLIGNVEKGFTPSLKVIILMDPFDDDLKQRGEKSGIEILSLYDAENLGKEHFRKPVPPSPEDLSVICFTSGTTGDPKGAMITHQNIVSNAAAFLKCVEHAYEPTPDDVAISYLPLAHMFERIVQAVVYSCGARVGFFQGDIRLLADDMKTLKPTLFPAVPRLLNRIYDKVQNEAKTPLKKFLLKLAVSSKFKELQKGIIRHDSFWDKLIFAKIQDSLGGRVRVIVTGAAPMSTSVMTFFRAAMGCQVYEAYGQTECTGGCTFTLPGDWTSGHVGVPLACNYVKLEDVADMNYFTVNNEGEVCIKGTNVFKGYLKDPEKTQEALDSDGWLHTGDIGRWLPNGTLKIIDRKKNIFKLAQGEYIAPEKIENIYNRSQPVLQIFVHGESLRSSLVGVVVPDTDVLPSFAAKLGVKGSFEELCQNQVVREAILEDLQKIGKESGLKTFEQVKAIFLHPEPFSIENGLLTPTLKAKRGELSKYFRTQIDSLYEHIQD
# UniProt P42025, whole entry, looked up: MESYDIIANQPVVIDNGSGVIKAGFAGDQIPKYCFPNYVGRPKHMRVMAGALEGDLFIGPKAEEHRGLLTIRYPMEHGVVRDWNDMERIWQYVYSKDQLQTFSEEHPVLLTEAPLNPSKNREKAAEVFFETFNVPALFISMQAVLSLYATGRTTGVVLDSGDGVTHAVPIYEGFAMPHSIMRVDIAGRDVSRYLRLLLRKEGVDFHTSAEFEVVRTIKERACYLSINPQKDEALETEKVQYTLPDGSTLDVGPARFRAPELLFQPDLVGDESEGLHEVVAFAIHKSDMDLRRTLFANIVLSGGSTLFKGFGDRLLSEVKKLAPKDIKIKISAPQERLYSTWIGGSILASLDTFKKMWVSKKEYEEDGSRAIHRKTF
# UniProt Q9H845: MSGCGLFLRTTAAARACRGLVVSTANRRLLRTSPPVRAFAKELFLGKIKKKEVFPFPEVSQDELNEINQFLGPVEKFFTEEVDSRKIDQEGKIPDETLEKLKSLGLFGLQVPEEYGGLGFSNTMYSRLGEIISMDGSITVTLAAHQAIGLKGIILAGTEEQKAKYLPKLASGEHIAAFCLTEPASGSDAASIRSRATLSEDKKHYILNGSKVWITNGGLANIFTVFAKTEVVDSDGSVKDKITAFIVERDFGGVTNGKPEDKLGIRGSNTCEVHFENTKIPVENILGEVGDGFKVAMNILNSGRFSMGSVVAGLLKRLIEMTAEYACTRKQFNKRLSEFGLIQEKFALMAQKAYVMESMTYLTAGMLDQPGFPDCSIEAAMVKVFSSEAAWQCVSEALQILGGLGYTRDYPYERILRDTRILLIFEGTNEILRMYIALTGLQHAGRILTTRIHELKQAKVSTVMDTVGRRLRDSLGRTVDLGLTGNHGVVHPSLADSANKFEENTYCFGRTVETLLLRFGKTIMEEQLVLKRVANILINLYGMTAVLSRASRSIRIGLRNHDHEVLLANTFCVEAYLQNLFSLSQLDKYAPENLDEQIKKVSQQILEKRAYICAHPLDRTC
# UniProt Q562R1, whole entry, looked up: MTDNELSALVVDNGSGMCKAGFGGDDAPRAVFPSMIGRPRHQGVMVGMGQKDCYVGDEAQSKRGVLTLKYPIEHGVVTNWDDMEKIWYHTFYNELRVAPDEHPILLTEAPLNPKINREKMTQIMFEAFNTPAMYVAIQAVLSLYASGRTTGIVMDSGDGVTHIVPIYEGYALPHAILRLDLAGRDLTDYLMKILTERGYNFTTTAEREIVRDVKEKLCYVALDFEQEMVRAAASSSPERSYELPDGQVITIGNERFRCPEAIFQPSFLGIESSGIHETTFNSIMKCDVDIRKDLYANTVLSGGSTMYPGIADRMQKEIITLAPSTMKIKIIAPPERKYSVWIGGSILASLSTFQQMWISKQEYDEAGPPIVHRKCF
# UniProt Q9NUJ1: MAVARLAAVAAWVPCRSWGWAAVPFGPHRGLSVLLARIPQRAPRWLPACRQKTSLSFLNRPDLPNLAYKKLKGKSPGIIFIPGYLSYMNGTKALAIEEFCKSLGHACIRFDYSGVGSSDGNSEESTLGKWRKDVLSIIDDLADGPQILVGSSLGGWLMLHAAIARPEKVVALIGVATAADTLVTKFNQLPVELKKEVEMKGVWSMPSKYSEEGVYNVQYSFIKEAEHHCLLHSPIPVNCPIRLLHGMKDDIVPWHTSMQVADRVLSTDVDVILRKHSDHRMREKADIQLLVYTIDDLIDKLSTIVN
# UniProt Q9NZ32, whole entry, looked up: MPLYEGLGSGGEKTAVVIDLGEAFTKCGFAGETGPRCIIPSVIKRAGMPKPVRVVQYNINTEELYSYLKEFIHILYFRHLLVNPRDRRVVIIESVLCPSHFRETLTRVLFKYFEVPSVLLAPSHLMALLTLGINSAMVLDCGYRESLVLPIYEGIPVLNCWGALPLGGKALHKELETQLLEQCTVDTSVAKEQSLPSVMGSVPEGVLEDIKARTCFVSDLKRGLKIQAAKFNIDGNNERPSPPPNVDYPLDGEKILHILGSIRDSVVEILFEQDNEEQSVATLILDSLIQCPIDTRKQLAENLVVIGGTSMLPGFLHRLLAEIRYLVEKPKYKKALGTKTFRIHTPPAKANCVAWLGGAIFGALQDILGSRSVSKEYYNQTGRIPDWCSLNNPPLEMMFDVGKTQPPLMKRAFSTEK
# UniProt O60488: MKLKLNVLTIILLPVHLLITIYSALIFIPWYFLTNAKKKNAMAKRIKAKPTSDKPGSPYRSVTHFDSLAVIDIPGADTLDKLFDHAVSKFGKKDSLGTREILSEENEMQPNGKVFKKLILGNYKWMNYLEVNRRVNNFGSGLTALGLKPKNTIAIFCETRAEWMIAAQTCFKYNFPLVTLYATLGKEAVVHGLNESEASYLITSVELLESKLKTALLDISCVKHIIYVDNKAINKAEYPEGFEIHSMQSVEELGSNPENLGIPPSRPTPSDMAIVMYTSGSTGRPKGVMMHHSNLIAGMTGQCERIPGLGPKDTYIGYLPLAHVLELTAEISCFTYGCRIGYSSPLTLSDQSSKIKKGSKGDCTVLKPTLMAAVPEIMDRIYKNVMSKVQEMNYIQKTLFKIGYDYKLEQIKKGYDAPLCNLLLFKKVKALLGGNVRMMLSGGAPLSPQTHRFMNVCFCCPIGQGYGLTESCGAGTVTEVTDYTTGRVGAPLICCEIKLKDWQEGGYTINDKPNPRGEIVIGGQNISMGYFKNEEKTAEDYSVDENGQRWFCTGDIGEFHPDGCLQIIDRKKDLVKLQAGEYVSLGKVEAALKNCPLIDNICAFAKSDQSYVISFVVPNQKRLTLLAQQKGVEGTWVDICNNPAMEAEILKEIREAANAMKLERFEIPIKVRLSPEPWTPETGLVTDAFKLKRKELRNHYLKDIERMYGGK
# UniProt Q6PD74: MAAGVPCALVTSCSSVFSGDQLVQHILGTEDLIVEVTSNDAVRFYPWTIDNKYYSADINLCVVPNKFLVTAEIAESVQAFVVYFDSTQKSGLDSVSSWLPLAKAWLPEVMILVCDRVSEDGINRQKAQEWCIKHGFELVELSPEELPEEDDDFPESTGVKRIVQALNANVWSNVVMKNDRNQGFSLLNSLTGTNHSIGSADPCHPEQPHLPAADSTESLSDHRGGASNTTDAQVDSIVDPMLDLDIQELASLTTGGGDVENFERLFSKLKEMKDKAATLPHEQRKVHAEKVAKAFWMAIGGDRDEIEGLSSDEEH
# UniProt Q9NP58: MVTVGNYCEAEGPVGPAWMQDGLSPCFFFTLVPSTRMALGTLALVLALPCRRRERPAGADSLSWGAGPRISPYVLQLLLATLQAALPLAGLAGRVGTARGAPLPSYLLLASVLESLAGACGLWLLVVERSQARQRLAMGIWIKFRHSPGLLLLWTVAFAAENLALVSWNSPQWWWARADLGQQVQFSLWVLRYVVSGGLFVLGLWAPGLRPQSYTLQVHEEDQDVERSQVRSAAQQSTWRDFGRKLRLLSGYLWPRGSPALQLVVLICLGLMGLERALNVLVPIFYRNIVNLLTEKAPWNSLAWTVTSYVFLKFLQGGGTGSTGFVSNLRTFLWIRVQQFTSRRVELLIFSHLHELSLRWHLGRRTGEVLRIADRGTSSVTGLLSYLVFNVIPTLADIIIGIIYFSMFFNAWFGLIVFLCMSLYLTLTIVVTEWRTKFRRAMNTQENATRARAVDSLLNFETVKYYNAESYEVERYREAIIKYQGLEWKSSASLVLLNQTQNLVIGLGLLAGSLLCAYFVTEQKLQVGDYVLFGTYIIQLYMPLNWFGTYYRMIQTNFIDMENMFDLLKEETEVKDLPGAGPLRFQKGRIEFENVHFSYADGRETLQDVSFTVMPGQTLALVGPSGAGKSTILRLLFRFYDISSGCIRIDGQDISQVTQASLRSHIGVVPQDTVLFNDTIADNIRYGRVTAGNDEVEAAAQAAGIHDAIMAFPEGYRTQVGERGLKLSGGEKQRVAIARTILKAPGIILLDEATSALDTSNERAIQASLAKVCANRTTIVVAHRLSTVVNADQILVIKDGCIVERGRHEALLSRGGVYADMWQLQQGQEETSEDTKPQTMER
# The list shows a part of the results.
# What was measured:
# Assay in all cases: log2 fold change, soluble protein after heating vs DMSO (PISA); higher = thermal stabilisation; K562 cells, 10 uM, 30 min; active = over 0.2 and 3.5 SD of the protein, either way, in both replicates (recomputed)
# [1] = compound: NC(=O)Nc1cc(-c2cccc(F)c2)sc1C(=O)N[C@H]1CCCNC1
# Procedure, shortened: (§1)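 Soluble protein was quantified by TMTpro 16plex LC-MS/MS after channel sums were equalised. It was obtained as the supernatant after 21,000xg for 90 min from pooled aliquots of K562 cells (2×10^6 cells/mL, 10 μM compound, 30 min) heated for 3 min across 48°C-58°C and extracted in PBS with 0.5% NP-40 at 4°C. Thermal stability values are relative to control samples and come from duplicates. They are given as log2 fold changes.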
# [2] = compound: NC(=O)c1cnc(N[C@@H]2CCCC[C@@H]2N)nc1Nc1cccc(-n2nccn2)c1
# Procedure, shortened: as §1
# [3] = compound: NC1(c2ccc(-c3nc4ccn5c(=O)[nH]nc5c4cc3-c3ccccc3)cc2)CCC1
# Procedure, shortened: as §1
# [4] = compound: NCC(=O)Nc1ccc(-n2nc(C(F)(F)F)cc2-c2ccc3c(ccc4ccccc43)c2)cc1
# Procedure, shortened: as §1
# [5] = compound: Nc1ccccc1NC(=O)c1ccc(CNC(=O)OCc2cccnc2)cc1 [entinostat]
# Procedure, shortened: as §1
# [6] = compound: O=C(CCCCCCC(=O)Nc1ccccc1)NO [vorinostat]
# Procedure, shortened: as §1
# [7] = compound: O=C(CCCCCCNC(=O)c1cnc(N(c2ccccc2)c2ccccc2Cl)nc1)NO [citarinostat]
# Procedure, shortened: as §1
# [8] = compound: O=C(O)c1ccc2c(c1)nc(Nc1cccc(Cl)c1)c1ccncc12 [silmitasertib]
# Procedure, shortened: as §1
# [9] = compound: O=C1NC(=O)C(c2cnc3ccccn23)=C1c1cn2c3c(cc(F)cc13)CN(C(=O)N1CCCCC1)CC2
# Procedure, shortened: as §1
# [10] = compound: c1cc(OCCN2CCCCC2)cc(-c2n[nH]c3ccc(-c4nnc[nH]4)cc23)c1
# Procedure, shortened: as §1
# [11] = compound: c1cn2cc(-c3ccc4cn[nH]c4c3)nc(Nc3ccc(N4CCOCC4)cc3)c2n1 [entospletinib]
# Procedure, shortened: as §1
Target,log2 fold change [1],log2 fold change [2],log2 fold change [3],log2 fold change [4],log2 fold change [5],log2 fold change [6],log2 fold change [7],log2 fold change [8],log2 fold change [9],log2 fold change [10],log2 fold change [11]
"AAK1, A0A096LP25",inactive: 0.318,inactive: 0.048,inactive: 0.048,inactive: -0.085,inactive: -0.061,inactive: -0.007,inactive: -0.014,inactive: -0.072,inactive: -0.159,inactive: 0.142,–
AARS2 (UniProt Q5JTZ9),inactive: -0.029,inactive: -0.018,inactive: -0.212,inactive: -0.086,inactive: 0.045,inactive: 0.015,inactive: 0.037,inactive: -0.051,inactive: -0.026,inactive: 0.06,–
ABHD16A (UniProt O95870),inactive: -0.026,inactive: 0.026,inactive: 0.113,inactive: 0.049,inactive: -0.02,inactive: 0.055,inactive: 0.026,inactive: -0.022,inactive: 0.005,inactive: 0.008,–
ACP1 isoform 2 (UniProt P24666),inactive: 0.048,inactive: -0.018,inactive: -0.086,inactive: -0.041,inactive: 0.041,inactive: 0.159,inactive: 0.005,inactive: -0.005,inactive: -0.149,inactive: -0.044,–
ACO2 (UniProt Q99798),inactive: 0.017,inactive: -0.04,inactive: -0.142,inactive: -0.012,inactive: 0.039,inactive: 0.023,inactive: 0.057,inactive: 0.001,inactive: -0.058,inactive: -0.042,–
ACSL3 (UniProt O95573),inactive: 0.009,inactive: -0.041,inactive: -0.095,inactive: -0.042,inactive: 0.047,inactive: 0.049,inactive: 0.047,inactive: 0.074,inactive: -0.045,inactive: 0.028,–
ACSL5 isoform 3 (UniProt Q9ULC5),inactive: -0.007,inactive: -0.066,inactive: -0.042,inactive: -0.184,inactive: 0.081,inactive: 0.005,inactive: -0.035,inactive: 0.002,inactive: -0.103,inactive: -0.052,–
ACTR1B (UniProt P42025),inactive: 0.075,inactive: 0.027,inactive: -0.003,inactive: 0.004,inactive: -0.034,active: 0.459,inactive: 0.078,inactive: 0.023,inactive: 0.06,inactive: -0.004,–
AAR2 (UniProt Q9Y312),inactive: -0.016,inactive: -0.015,inactive: 0.066,inactive: -0.034,inactive: 0.026,inactive: 0.19,inactive: -0.009,inactive: 0.035,inactive: 0.04,inactive: -0.067,–
ACSF3 (UniProt Q4G176),inactive: -0.016,inactive: -0.073,inactive: -0.098,inactive: -0.184,inactive: 0.069,inactive: 0.007,inactive: 0.197,inactive: 0.109,inactive: 0.035,inactive: -0.107,–
ADAM9 (UniProt Q13443),inactive: 0.01,inactive: 0.046,inactive: 0.034,inactive: 0.065,inactive: -0.062,inactive: -0.078,inactive: -0.025,inactive: 0.023,inactive: 0.012,inactive: -0.014,inactive: 0.01
ACADM isoform 2 (UniProt P11310),inactive: -0.044,inactive: 0.01,inactive: -0.024,inactive: 0.029,inactive: -0.019,inactive: -0.007,inactive: 0.037,inactive: -0.032,inactive: -0.101,inactive: 0.009,–
ABRAXAS2 (UniProt Q15018),inactive: 0.026,inactive: 0.02,inactive: 0.013,inactive: -0.011,inactive: -0.034,inactive: 0.053,inactive: 0,inactive: 0.011,inactive: -0.092,inactive: -0.005,inactive: 0.005
ACSL1 (UniProt P33121),inactive: -0.058,inactive: -0.015,inactive: -0.091,inactive: -0.003,inactive: -0.034,inactive: 0.004,inactive: 0.071,inactive: 0.029,inactive: -0.038,inactive: -0.022,–
ACP1 (UniProt P24666),inactive: -0.079,inactive: -0.24,inactive: -0.002,inactive: -0.199,inactive: 0.093,inactive: 0.01,inactive: 0.012,inactive: 0.088,inactive: -0.074,inactive: -0.014,–
ACAD9 (UniProt Q9H845),inactive: -0.009,inactive: -0.051,inactive: -0.036,inactive: -0.012,inactive: -0.021,inactive: 0.033,inactive: 0.035,inactive: 0.021,inactive: -0.016,inactive: 0.007,–
ACTBL2 (UniProt Q562R1),inactive: -0.205,inactive: 0.038,active: 1.54,inactive: 0.239,inactive: 0.103,inactive: 0.024,inactive: -0.585,inactive: -0.129,inactive: -0.051,inactive: -0.1,–
ABHD10 (UniProt Q9NUJ1),inactive: 0.02,inactive: 0.093,inactive: -0.008,inactive: 0,inactive: 0.008,inactive: -0.022,inactive: 0.063,inactive: 0.056,inactive: -0.038,inactive: -0.033,inactive: 0.037
ACAA2 (UniProt P42765),inactive: -0.012,inactive: -0.001,inactive: 0.003,inactive: -0.004,inactive: -0.008,inactive: -0.051,inactive: -0.039,inactive: -0.011,inactive: -0.054,inactive: 0.014,inactive: 0.018
AAMP (UniProt Q13685),inactive: -0.006,inactive: -0.05,inactive: -0.005,inactive: -0.018,inactive: -0.055,inactive: 0.015,inactive: -0.026,inactive: 0.061,inactive: 0.059,inactive: -0.013,–
ACVR1 (UniProt Q04771),inactive: 0.044,inactive: 0.074,inactive: 0,inactive: 0.089,inactive: 0.137,inactive: -0.255,inactive: 0.07,inactive: 0.046,inactive: -0.069,inactive: 0.027,–
ACAP2 (UniProt Q15057),inactive: -0.016,inactive: -0.075,inactive: 0.026,inactive: -0.035,inactive: 0.005,inactive: 0,inactive: 0.029,inactive: -0.007,inactive: -0.078,inactive: 0.045,–
AARSD1 isoform 3 (UniProt Q9BTE6),inactive: -0.051,inactive: -0.008,active: -0.214,inactive: -0.04,inactive: 0.054,inactive: -0.113,inactive: 0.033,inactive: 0.046,inactive: 0.008,inactive: 0.011,–
ACTR10 (UniProt Q9NZ32),inactive: 0.01,inactive: -0.003,inactive: -0.013,inactive: -0.018,inactive: -0.019,inactive: -0.04,inactive: 0.031,inactive: 0.065,inactive: -0.002,inactive: 0.011,inactive: -0.038
ABHD17A isoform 2 (UniProt Q96GS6),inactive: 0.036,inactive: -0.119,inactive: -0.049,inactive: -0.078,inactive: -0.104,inactive: -0.04,inactive: 0.036,inactive: -0.02,inactive: 0.01,inactive: 0.051,–
ACSL4 (UniProt O60488),inactive: -0.087,inactive: -0.097,inactive: -0.057,inactive: -0.023,inactive: 0.081,inactive: 0.029,inactive: 0.044,inactive: 0.149,inactive: 0.003,inactive: 0.017,–
AAGAB (UniProt Q6PD74),inactive: -0.071,inactive: -0.028,inactive: -0.174,inactive: -0.011,inactive: 0.004,inactive: -0.009,inactive: 0.024,inactive: 0.071,inactive: -0.109,inactive: -0.158,–
ACACB (UniProt O00763),inactive: -0.02,inactive: -0.043,inactive: -0.047,inactive: 0.084,inactive: 0.076,inactive: 0.082,inactive: 0.131,inactive: 0.119,inactive: 0.222,inactive: -0.01,–
ABCB6 (UniProt Q9NP58),inactive: 0.005,inactive: -0.111,active: -0.456,inactive: -0.015,inactive: -0.011,inactive: 0.044,inactive: 0.063,inactive: 0.018,inactive: -0.047,inactive: -0.021,–

# Whole records, quoted from the list. Order of values: log2 fold change [1]	log2 fold change [2]	log2 fold change [3]	log2 fold change [4]	log2 fold change [5]	log2 fold change [6]	log2 fold change [7]	log2 fold change [8]	log2 fold change [9]	log2 fold change [10]	log2 fold change [11]
# AARS2 (UniProt Q5JTZ9) as listed: inactive: -0.029	inactive: -0.018	inactive: -0.212	inactive: -0.086	inactive: 0.045	inactive: 0.015	inactive: 0.037	inactive: -0.051	inactive: -0.026	inactive: 0.06	–
# ADAM9 (UniProt Q13443) as listed: inactive: 0.01	inactive: 0.046	inactive: 0.034	inactive: 0.065	inactive: -0.062	inactive: -0.078	inactive: -0.025	inactive: 0.023	inactive: 0.012	inactive: -0.014	inactive: 0.01
